Assay results published in the supplement of paper PMC10849652.
This is one part of the list.

The chains behind the UniProt entries cited, without tags or fusion partners. Where a name states a change or a piece, a line headed by the entry shows the natural chain unless it says otherwise.
UniProt Q9UPW0: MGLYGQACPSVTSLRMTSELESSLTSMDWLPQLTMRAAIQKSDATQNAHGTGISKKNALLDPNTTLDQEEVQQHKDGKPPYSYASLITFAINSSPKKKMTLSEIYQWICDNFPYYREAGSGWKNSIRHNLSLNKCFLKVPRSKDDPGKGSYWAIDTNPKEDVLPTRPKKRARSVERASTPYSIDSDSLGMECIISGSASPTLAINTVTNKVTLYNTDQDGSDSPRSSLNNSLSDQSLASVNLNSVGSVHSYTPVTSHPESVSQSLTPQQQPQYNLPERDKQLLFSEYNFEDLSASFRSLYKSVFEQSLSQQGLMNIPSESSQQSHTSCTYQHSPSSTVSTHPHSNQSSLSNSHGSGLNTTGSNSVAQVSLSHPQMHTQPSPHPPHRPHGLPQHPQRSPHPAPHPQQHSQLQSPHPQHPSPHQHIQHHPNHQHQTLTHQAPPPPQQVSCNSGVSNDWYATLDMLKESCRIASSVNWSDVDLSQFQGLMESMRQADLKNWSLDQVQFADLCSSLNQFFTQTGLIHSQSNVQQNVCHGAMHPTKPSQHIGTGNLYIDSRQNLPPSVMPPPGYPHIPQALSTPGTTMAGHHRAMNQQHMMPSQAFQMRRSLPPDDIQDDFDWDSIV
UniProt P16383: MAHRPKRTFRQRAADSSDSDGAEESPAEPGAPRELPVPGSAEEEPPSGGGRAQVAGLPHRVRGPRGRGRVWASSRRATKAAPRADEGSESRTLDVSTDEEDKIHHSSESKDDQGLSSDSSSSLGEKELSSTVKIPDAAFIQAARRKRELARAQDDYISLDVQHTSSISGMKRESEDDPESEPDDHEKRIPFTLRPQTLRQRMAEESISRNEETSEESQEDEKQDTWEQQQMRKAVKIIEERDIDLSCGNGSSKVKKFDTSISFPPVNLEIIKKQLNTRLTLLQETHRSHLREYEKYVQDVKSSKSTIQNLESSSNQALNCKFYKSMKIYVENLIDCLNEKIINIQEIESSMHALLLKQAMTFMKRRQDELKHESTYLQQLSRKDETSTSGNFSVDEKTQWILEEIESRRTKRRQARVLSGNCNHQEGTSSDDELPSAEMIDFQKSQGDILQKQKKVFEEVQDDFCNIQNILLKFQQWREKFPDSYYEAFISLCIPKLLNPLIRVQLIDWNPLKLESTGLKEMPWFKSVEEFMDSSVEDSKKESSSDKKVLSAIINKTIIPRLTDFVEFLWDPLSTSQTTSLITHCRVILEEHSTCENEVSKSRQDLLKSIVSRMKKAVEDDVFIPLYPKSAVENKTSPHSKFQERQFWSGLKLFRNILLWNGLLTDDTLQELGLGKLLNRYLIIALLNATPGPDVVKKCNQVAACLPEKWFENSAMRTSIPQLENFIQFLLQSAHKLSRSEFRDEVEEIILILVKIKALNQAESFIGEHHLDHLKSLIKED
UniProt Q5SZK8: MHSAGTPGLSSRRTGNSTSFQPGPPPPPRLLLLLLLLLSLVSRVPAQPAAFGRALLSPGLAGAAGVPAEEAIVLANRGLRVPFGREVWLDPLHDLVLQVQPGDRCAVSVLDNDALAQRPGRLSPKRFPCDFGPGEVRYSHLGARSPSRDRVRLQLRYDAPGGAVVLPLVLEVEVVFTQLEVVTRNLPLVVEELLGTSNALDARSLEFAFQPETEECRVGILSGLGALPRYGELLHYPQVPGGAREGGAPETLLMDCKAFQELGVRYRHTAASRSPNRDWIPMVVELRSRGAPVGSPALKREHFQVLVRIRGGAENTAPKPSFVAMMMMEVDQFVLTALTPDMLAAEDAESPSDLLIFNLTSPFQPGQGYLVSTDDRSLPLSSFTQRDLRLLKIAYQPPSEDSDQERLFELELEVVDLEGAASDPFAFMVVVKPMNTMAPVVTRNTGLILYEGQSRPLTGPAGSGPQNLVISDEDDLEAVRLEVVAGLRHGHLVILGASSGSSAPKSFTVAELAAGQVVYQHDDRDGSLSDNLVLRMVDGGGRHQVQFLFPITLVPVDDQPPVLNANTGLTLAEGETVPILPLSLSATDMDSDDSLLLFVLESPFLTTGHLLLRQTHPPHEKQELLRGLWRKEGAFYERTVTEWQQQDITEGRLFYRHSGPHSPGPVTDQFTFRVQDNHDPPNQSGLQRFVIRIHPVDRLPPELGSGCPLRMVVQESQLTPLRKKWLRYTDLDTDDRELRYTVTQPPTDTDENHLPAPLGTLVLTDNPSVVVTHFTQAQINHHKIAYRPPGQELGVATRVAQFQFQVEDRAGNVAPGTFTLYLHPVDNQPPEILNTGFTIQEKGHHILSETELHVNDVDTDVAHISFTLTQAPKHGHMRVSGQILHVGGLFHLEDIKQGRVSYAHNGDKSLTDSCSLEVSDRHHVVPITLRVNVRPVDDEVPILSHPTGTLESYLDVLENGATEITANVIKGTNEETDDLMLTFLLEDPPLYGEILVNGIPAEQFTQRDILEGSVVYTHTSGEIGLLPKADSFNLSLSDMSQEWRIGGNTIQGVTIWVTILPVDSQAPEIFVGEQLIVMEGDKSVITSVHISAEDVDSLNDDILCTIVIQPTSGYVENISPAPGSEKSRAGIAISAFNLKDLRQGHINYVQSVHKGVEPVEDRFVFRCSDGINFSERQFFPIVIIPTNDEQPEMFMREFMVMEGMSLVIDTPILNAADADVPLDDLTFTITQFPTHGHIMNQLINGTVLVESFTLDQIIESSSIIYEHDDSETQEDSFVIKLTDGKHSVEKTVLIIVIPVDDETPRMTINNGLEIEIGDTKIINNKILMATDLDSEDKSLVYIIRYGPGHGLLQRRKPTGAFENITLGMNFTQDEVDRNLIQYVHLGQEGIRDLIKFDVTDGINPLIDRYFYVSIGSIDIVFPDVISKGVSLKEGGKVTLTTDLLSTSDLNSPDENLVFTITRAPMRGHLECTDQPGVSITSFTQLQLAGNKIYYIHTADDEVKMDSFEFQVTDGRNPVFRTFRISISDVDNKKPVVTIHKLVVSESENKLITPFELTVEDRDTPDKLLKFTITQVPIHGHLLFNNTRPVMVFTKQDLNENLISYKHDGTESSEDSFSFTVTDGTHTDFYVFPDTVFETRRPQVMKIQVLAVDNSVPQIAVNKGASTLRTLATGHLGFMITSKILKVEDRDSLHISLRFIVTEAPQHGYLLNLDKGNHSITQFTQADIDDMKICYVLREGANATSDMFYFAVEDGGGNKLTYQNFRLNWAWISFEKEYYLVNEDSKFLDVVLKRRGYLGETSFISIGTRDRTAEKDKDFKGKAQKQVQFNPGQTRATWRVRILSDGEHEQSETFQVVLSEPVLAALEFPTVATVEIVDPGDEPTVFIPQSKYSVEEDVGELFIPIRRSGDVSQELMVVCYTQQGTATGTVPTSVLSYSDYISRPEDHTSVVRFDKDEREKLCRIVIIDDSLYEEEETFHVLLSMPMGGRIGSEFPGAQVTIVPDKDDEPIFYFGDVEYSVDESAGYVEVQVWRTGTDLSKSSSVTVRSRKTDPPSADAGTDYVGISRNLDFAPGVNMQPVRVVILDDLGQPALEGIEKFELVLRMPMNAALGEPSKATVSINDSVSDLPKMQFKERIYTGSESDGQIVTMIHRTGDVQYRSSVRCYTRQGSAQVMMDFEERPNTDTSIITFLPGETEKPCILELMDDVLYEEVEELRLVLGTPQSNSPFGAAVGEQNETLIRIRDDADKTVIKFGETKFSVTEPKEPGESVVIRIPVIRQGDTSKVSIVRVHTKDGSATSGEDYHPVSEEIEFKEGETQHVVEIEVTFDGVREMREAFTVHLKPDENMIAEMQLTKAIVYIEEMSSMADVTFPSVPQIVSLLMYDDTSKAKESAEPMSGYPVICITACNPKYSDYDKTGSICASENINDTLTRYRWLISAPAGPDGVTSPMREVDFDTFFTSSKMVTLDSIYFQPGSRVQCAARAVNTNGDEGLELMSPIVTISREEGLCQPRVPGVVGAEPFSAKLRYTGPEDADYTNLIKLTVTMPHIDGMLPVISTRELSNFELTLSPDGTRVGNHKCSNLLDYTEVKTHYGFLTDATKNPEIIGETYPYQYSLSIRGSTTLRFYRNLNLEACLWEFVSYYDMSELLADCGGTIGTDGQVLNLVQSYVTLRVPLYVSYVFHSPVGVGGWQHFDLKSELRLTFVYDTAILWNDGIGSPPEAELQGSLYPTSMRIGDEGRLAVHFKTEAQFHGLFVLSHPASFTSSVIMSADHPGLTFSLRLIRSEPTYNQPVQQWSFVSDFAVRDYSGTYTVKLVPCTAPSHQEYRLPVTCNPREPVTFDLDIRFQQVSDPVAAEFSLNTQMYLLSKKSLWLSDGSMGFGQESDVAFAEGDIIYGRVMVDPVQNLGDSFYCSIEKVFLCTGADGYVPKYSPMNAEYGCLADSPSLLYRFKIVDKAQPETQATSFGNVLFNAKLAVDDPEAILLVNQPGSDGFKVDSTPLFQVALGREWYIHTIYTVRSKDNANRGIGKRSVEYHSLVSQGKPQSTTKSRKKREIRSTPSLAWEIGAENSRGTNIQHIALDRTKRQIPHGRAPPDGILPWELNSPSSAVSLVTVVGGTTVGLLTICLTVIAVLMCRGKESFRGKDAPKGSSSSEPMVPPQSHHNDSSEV
UniProt P30047: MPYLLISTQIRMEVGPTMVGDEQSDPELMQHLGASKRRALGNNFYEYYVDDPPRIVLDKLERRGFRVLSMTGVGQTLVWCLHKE
UniProt Q9H0R8, whole entry, looked up: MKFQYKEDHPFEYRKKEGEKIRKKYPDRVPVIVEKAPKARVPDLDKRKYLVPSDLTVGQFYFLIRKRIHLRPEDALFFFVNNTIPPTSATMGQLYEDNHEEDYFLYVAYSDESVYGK
UniProt P85037: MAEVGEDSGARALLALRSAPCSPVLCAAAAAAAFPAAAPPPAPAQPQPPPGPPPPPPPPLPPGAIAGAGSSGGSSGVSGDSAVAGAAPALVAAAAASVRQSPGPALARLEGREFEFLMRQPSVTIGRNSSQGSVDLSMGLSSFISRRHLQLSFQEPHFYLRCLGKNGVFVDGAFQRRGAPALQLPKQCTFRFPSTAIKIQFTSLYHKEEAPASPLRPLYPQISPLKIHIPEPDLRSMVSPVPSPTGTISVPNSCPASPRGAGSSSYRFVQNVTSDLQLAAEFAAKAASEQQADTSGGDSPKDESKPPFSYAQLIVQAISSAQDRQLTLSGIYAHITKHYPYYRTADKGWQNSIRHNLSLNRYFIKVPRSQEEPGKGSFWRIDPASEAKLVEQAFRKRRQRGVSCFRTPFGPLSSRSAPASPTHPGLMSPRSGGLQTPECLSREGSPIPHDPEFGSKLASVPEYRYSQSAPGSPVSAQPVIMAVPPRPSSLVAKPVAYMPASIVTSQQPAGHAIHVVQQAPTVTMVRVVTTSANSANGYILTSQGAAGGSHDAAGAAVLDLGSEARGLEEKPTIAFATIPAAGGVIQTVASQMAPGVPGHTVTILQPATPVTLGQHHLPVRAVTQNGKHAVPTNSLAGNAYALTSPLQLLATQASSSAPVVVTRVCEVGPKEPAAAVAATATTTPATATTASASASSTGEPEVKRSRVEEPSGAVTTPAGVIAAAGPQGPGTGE
UniProt P48506: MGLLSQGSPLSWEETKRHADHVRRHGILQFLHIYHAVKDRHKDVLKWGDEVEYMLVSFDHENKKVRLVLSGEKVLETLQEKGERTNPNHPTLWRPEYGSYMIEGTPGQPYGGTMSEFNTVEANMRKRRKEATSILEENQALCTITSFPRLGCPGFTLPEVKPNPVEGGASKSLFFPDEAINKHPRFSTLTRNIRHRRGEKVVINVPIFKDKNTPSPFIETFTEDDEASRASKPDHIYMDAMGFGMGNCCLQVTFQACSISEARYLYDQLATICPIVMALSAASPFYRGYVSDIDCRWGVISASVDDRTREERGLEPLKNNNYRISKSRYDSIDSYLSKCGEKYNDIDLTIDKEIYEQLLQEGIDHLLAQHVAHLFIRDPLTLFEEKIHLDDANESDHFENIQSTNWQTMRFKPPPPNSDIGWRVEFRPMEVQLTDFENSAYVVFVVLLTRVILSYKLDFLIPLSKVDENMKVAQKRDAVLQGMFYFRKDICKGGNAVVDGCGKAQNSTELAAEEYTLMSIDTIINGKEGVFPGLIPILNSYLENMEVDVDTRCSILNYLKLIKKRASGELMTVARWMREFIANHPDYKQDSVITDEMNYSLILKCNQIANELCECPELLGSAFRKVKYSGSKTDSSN
UniProt P07902: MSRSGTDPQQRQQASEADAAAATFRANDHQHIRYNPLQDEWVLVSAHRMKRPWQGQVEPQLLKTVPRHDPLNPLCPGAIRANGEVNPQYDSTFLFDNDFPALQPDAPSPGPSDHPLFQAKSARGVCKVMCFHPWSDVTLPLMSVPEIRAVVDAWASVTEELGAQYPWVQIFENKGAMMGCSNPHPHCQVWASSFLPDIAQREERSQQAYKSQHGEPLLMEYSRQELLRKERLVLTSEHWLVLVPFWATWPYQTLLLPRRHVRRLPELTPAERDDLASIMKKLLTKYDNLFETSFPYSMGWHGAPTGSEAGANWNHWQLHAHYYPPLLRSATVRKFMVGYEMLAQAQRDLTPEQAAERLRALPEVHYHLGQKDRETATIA

Columns and labels:
Experiment in all cases: log2 fold change, soluble protein after heating vs DMSO (PISA); higher = thermal stabilisation; K562 lysate, 10 uM; active = over 0.2 and 3.5 SD of the protein, either way, in both replicates (recomputed)
vemurafenib = compound: CCCS(=O)(=O)Nc1ccc(F)c(C(=O)c2c[nH]c3ncc(-c4ccc(Cl)cc4)cc23)c1F [vemurafenib]
How it was run: (§1)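 K562 pellets were dounce-homogenised in PBS pH 7.4 with 1 mM MgCl2, and the crude extract at 1 mg/mL protein was treated with 10 μM compound for 30 min. Aliquots were heated for 3 min across 48°C-58°C, pooled, and brought to 0.5% NP-40 at 4°C; soluble protein was the supernatant after 21,000xg for 90 min. Soluble protein was quantified by TMTpro 16plex LC-MS/MS with channel sums equalised, and reported as log2 fold change in thermal stability against DMSO controls, with values from duplicates.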

[1] = compound: CCCS(=O)(=O)Nc1ccc(F)c(C(=O)c2c[nH]c3ncc(Cl)cc23)c1F
How it was run: as §1

barasertib = compound: CCN(CCCOc1ccc2c(Nc3cc(CC(=O)Nc4cccc(F)c4)[nH]n3)ncnc2c1)CCOP(=O)(O)O [barasertib]
How it was run: as §1

[2] = compound: CC[C@@H]1C(=O)N(C)c2cnc(Nc3ccc(C(=O)NC4CCN(C)CC4)cc3OC)nc2N1C1CCCC1
How it was run: as §1

volasertib = compound: CC[C@@H]1C(=O)N(C)c2cnc(Nc3ccc(C(=O)N[C@H]4CC[C@H](N5CCN(CC6CC6)CC5)CC4)cc3OC)nc2N1C(C)C [volasertib]
How it was run: as §1

[3] = compound: CCn1c(C(=O)N(C2CC2)C2CC2)cc2c3c(ncn3C)c(Nc3cc(C)n(C)n3)nc21
How it was run: as §1

[4] = compound: CCn1cc(-c2ccnc3[nH]c(-c4cccc(CN(C)C)c4)cc23)c(-c2ccc(NC(=O)N(C)C)cc2)n1
How it was run: as §1

[5] = compound: CN1CCC(CNc2ccc3ncc(-c4cccc(OC(F)(F)F)c4)n3n2)CC1
How it was run: as §1

saracatinib = compound: CN1CCN(CCOc2cc(OC3CCOCC3)c3c(Nc4c(Cl)ccc5c4OCO5)ncnc3c2)CC1 [saracatinib]
How it was run: as §1

sotrastaurin = compound: CN1CCN(c2nc(C3=C(c4c[nH]c5ccccc45)C(=O)NC3=O)c3ccccc3n2)CC1 [sotrastaurin]
How it was run: as §1

Measured: log2 fold change

FYCO1 isoform 4 (UniProt Q9BQS8)
inactive: vemurafenib 0.024 | [1] 0.019 | barasertib 0.045 | [2] 0.027 | volasertib -0.004 | [3] 0.031 | [4] -0.104 | [5] 0.063 | saracatinib 0.04 | sotrastaurin 0

GCN1 (UniProt Q92616)
inactive: vemurafenib 0.025 | [1] 0.004 | barasertib 0.061 | [2] -0.107 | volasertib -0.084 | [3] 0.082 | [4] -0.05 | [5] -0.07 | saracatinib 0.015 | sotrastaurin -0.006

FYB1 isoform 3 (UniProt O15117)
inactive: vemurafenib -0.056 | [1] -0.011 | barasertib -0.003 | [2] 0.043 | volasertib -0.026 | [3] -0.018 | [4] 0.072 | [5] -0.101 | saracatinib 0.007 | sotrastaurin 0.008

GBE1 (UniProt Q04446)
inactive: vemurafenib 0.024 | [1] 0.006 | barasertib 0.08 | [2] 0.019 | volasertib -0.109 | [3] 0 | [4] 0.006 | [5] -0.057 | saracatinib 0.007 | sotrastaurin 0.001

G6PD isoform 2 (UniProt P11413)
inactive: vemurafenib 0.003 | [1] 0.008 | barasertib -0.029 | [2] -0.02 | volasertib -0.061 | [3] 0.016 | [4] 0.063 | [5] -0.04 | saracatinib 0.032 | sotrastaurin -0.017

Two successive entries out of the list so far, quoted:
FYCO1 isoform 4 (UniProt Q9BQS8)
inactive: vemurafenib 0.024 | [1] 0.019 | barasertib 0.045 | [2] 0.027 | volasertib -0.004 | [3] 0.031 | [4] -0.104 | [5] 0.063 | saracatinib 0.04 | sotrastaurin 0

GCN1 (UniProt Q92616)
inactive: vemurafenib 0.025 | [1] 0.004 | barasertib 0.061 | [2] -0.107 | volasertib -0.084 | [3] 0.082 | [4] -0.05 | [5] -0.07 | saracatinib 0.015 | sotrastaurin -0.006

Next part.

GCDH (UniProt Q92947)
inactive: vemurafenib 0.031 | [1] 0.025 | barasertib -0.054 | [2] 0.002 | volasertib 0.022 | [3] -0.003 | [4] -0.07 | [5] -0.077 | saracatinib -0.041 | sotrastaurin -0.041

FOXJ3 (UniProt Q9UPW0)
inactive: vemurafenib 0.111 | [1] 0.124 | barasertib 0.038 | [2] 0.054 | volasertib -0.096 | [3] 0.02 | [4] 0.032 | [5] -0.08 | saracatinib 0.023 | sotrastaurin 0.018

GGA2 (UniProt Q9UJY4)
inactive: vemurafenib -0.003 | [1] 0.011 | barasertib 0.073 | [2] -0.005 | volasertib -0.048 | [3] 0.032 | [4] -0.02 | [5] -0.088 | saracatinib 0.025 | sotrastaurin 0.041

GCFC2 (UniProt P16383)
inactive: vemurafenib 0.053 | [1] 0.008 | barasertib -0.026 | [2] 0.029 | volasertib -0.019 | [3] -0.014 | [4] -0.01 | [5] 0.032 | saracatinib -0.002 | sotrastaurin 0.004

FXR1 (UniProt P51114)
inactive: vemurafenib -0.047 | [1] 0.009 | barasertib 0.01 | [2] -0.036 | volasertib -0.022 | [3] 0.018 | [4] -0.107 | [5] 0.012 | saracatinib -0.036 | sotrastaurin -0.011

FREM2 (UniProt Q5SZK8)
inactive: vemurafenib 0.003 | [1] -0.082 | barasertib 0.136 | [2] -0.072 | volasertib 0.026 | [3] 0.014 | [4] -0.366 | [5] 0.151 | saracatinib 0.051 | sotrastaurin 0.056

GEMIN5 (UniProt Q8TEQ6)
inactive: vemurafenib 0.006 | [1] 0.008 | barasertib 0.004 | [2] -0.085 | volasertib -0.069 | [3] 0.066 | [4] -0.052 | [5] -0.061 | saracatinib 0.018 | sotrastaurin 0.015

GCHFR (UniProt P30047)
inactive: vemurafenib 0.059 | [1] 0.019 | barasertib 0.002 | [2] 0.04 | volasertib -0.001 | [3] -0.004 | [4] -0.101 | [5] 0.133 | saracatinib 0.018 | sotrastaurin -0.155

GAN (UniProt Q9H2C0)
inactive: vemurafenib 0.025 | [1] -0.005 | barasertib 0.004 | [2] 0.024 | volasertib -0.004 | [3] -0.024 | [4] -0.081 | [5] 0.062 | saracatinib 0.016 | sotrastaurin 0.026

GAPDH (UniProt P04406)
inactive: vemurafenib -0.031 | [1] 0.002 | barasertib -0.016 | [2] -0.006 | volasertib -0.002 | [3] -0.009 | [4] 0.042 | [5] -0.032 | saracatinib 0 | sotrastaurin -0.01

GABARAPL1 isoform 2 (UniProt Q9H0R8)
inactive: vemurafenib 0.053 | [1] 0.012 | barasertib -0.125 | [2] -0.004 | volasertib 0.002 | [3] 0.006 | [4] 0.094 | [5] 0.029 | saracatinib 0 | sotrastaurin -0.048

FPGT (UniProt O14772)
active: [4] 0.415
inactive: vemurafenib -0.008 | [1] 0.011 | barasertib 0.048 | [2] -0.064 | volasertib -0.018 | [3] 0.008 | [5] -0.054 | saracatinib 0.017 | sotrastaurin -0.001

FOXK1 (UniProt P85037)
inactive: vemurafenib -0.01 | [1] 0.008 | barasertib 0.025 | [2] -0.007 | volasertib -0.019 | [3] 0.013 | [4] -0.014 | [5] 0.026 | saracatinib 0.005 | sotrastaurin -0.012

GCLC (UniProt P48506)
inactive: vemurafenib -0.029 | [1] 0.002 | barasertib 0.01 | [2] -0.01 | volasertib -0.027 | [3] -0.028 | [4] -0.043 | [5] -0.002 | saracatinib 0.018 | sotrastaurin 0.018

G3BP2 (UniProt Q9UN86)
inactive: vemurafenib 0.008 | [1] 0.017 | barasertib 0.016 | [2] 0.009 | volasertib -0.032 | [3] -0.004 | [4] 0.028 | [5] -0.055 | saracatinib 0.005 | sotrastaurin 0.03

FTSJ1 (UniProt Q9UET6)
inactive: vemurafenib -0.036 | [1] -0.006 | barasertib -0.043 | [2] -0.04 | volasertib -0.056 | [3] -0.003 | [4] 0.067 | [5] 0.027 | saracatinib -0.018 | sotrastaurin 0.089

GAPVD1 isoform 6 (UniProt Q14C86)
inactive: vemurafenib 0.011 | [1] 0.006 | barasertib 0.01 | [2] -0.077 | volasertib -0.036 | [3] 0.027 | [4] 0.046 | [5] -0.083 | saracatinib 0.014 | sotrastaurin 0.012

GEMIN6 (UniProt Q8WXD5)
inactive: vemurafenib 0.021 | [1] 0.048 | barasertib 0.086 | [2] 0.097 | volasertib 0.015 | [3] -0.01 | [4] -0.083 | [5] 0.029 | saracatinib 0.005 | sotrastaurin -0.029

FUS (UniProt P35637)
inactive: vemurafenib -0.017 | [1] 0.015 | barasertib -0.02 | [2] 0.033 | volasertib -0.008 | [3] -0.051 | [4] 0.157 | [5] -0.079 | saracatinib -0.01 | sotrastaurin -0.005

FTSJ3 (UniProt Q8IY81)
inactive: vemurafenib -0.004 | [1] -0.011 | barasertib 0.006 | [2] 0.011 | volasertib -0.033 | [3] 0.024 | [4] 0 | [5] -0.005 | saracatinib 0.015 | sotrastaurin -0.003

GALT (UniProt P07902)
inactive: vemurafenib 0.065 | [1] -0.033 | barasertib 0.023 | [2] 0.026 | volasertib 0.011 | [3] 0.034 | [4] -0.051 | [5] 0.046 | saracatinib 0.028 | sotrastaurin -0.036

GAB1 isoform 2 (UniProt Q13480)
inactive: vemurafenib 0.074 | [1] 0.035 | barasertib -0.066 | [2] 0.12 | volasertib -0.014 | [3] -0.058 | [4] -0.134 | [5] 0.089 | saracatinib 0.034 | sotrastaurin -0.008
